Experimental findings from PMC4321543 are described below.

Experiment [1] addresses T1, S6K1(D):Myc fusion protein (Arabidopsis) (UniProt P42818).
T1 sequence: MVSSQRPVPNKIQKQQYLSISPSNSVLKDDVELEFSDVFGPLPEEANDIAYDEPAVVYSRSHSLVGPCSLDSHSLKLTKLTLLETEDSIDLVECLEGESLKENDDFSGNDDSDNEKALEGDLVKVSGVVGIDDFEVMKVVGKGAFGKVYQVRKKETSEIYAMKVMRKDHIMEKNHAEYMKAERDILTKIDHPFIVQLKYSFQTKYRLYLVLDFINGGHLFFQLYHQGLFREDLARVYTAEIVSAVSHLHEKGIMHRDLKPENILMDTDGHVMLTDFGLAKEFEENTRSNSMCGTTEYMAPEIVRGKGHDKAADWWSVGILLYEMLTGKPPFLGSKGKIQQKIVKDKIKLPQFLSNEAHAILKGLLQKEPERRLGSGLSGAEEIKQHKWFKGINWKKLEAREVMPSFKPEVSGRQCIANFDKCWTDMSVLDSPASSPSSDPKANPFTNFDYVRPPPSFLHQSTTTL
In words: co-IP; HA:Tap46 co-expressed with Myc-fused S6K proteins in N. benthamiana leaves by agroinfiltration; immunoprecipitation from leaf extracts with anti-Myc antibodies; co-immunoprecipitated HA:Tap46 detected by immunoblotting with anti-HA antibodies.

For experiment [2], the target named is T2, S6K1(A):Myc fusion protein (Arabidopsis) (UniProt P42818).
T2 sequence: T1 sequence with D449A
The experiment is described as above.

The target in experiment [3] is T3, S6K2:Myc fusion protein (Arabidopsis) (UniProt Q39030).
T3 sequence: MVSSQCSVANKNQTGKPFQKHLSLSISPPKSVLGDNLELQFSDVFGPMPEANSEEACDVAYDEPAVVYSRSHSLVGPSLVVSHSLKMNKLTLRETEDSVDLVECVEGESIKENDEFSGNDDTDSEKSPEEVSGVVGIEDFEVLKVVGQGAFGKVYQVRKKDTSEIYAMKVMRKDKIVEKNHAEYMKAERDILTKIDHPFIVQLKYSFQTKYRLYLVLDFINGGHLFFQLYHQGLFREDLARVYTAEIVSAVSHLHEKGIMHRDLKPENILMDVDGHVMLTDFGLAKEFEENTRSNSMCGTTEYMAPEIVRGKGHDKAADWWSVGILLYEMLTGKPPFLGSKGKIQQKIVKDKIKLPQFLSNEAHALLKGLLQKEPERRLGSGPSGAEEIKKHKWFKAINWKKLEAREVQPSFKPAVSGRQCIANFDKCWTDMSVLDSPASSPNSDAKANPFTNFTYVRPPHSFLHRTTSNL
Described as above.

The target in experiment [4] is T4, YFP^C:S6K2 fusion protein (Arabidopsis) (UniProt Q39030).
T4 sequence: T3 sequence
The experiment can be described thus: split reporter; BiFC: YFP^N and YFP^C fusions co-expressed in N. benthamiana leaves by agroinfiltration; after 48 hours mesophyll protoplasts or epidermal cells observed by confocal laser scanning microscopy.

Positions count from the first letter of the chain named. These are yes or no findings as the source states them, for the method shown. In cells and extracts the contact can be indirect. Some entries that bind do so weakly or less than the wild type. Tags and fused reporters may be left off the sequences shown.

B1: HA:Tap46 fusion protein (protein, UniProt Q8LDQ4 1-405)
chain: MGGLAMEEMPLSVLFEQARKIHLAASESGVDQDVVKKGCEMFQKCEDMIGKLALFSSNETKEDISTNNLKYLLVPYYLAELTEKIIQEDRIQIVKASYAKLKEFFSFCEAMELVPDEELEASSRGGSGAPADRRALKIARFKRQKAAEAKLLEIKERKERRGRSTKASALSTPVESGEDDIPDDDSEEEREAWLSSINLAICKAIDLLEMLKREEEMLSAIKERQLKDGEGGFSRDALDDRTKKAETWHRDAAARIQYSKPAQPITCATFAQDVLEGRASVSQGHEHKNQPLIFGPASIVGGPLSTERERMIAQVFQPSHRMPTMCIEDAGLTEMNIMNDWQEQTKKAIEEATTSWYNDKPLRRKEEDEEDDDEDEEAVMKARAFDDWKDDNPRGAGNKKLTPCG
Take B1: the binding entry in experiment [1], in experiment [2] and in experiment [3] was “binds” in each case.

B2: YFP^N:Tap46 fusion protein (protein, UniProt Q8LDQ4 1-405)
chain: B1 chain
Regarding B2, in experiment [4], the binding entry is recorded as “binds”.
